Assay results: the supplement of paper PMC12425257
± gives the standard deviation of the averaged measurements. Some of the results follow.

Test system: Madurella mycetomatis MM55
Assay: metabolic activity (growth) relative to DMSO growth control; higher = more fungal growth

SMILES | metabolic activity (1 µM) | metabolic activity (2 µM) | metabolic activity (10 µM)
Cn1cc(-c2ccc3c(c2)CCN3C(=O)Cc2cccc(C(F)(F)F)c2)c2c(N)ncnc21 | 93.1 ± 26% | 94.8 ± 7.2% | 87.2 ± 24%
Cl.O=C(Nc1ccc(Oc2ccc3[nH]c(NC(=O)c4ccccc4)nc3c2)cc1)Nc1cc(C(F)(F)F)ccc1F | 92.8 ± 5.7% | 100 ± 19% | 110 ± 27%
COc1cc(N2CCN(C)CC2)ccc1Nc1ncc2c(n1)N(C)c1ccccc1C(=O)N2CC(F)(F)F | 99.5 ± 6.2% | 95.9 ± 1.7% | 82.6 ± 16%
CC[C@@H]1CO[C@H](C(=O)Nc2ccccc2)CN1c1cc(-c2ccc3c(N)n[nH]c3c2)nc(NC)n1 | 93.6 ± 16% | 89.9 ± 14% | 108 ± 6.1%
CCc1c(-c2nonc2N)nc2c(C#Cc3ccccn3)ccc(N3C[C@H](N)[C@@H](O)C3)n12 | 88.4 ± 7.5% | 129 ± 18% | 89.7 ± 5.3%
Cc1ccc(C(=O)NCC(N)=O)cc1-n1c(C)cc(OCc2ccc(F)cc2F)c(Br)c1=O | 103 ± 4.1% | 101 ± 8% | 102 ± 3.7%
CCOc1ccc2c(-c3ccnc(Nc4cccc(C(F)(F)F)c4)n3)cnn2n1 | 92.3 ± 13% | 83.2 ± 28% | 112 ± 29%
Cc1cc(-c2n[nH]c3cc4c(nc23)CN([C@H](C)c2ccccc2)C(=O)N4)ccn1 | 94.6 ± 29% | 94.4 ± 20% | 96.9 ± 27%
COc1cc2c(cc1OC)Nc1cc(-c3ccc([N+](=O)[O-])c(OC)c3)ccc1C(=O)N2 | 96 ± 3.4% | 95 ± 5% | 79.6 ± 31%
O=C(NCCO)c1cccc(-c2cc(Nc3ccc(OC(F)(F)F)cc3)ncn2)c1 | 107 ± 37% | 113 ± 11% | 131.8 ± 0.88%
CC[C@@H]1C(=O)N(C)c2cnc(Nc3ccc(C(=O)NC4CCN(C)CC4)cc3OC)nc2N1C1CCCC1 | 106 ± 22% | 76.1 ± 1.3% | 88.4 ± 4.4%
CCC(=O)Nc1cc(Nc2cc(NC3CC3)n3ncc(C#N)c3n2)ccc1C | 85.5 ± 4.9% | 87.9 ± 28% | 95.9 ± 20%
COc1cc(Nc2ccnc3ccc(Br)cc23)cc(OC)c1OC | 109 ± 24% | 115 ± 21% | 124 ± 13%
Fc1cccc(COc2ccc(Nc3ncncc3C#Cc3ccccc3)cc2Cl)c1 | 103 ± 1.1% | 91.9 ± 18% | 71.4 ± 37%
CC(=O)c1c(C)c2cnc(Nc3ccc(N4CCNCC4)cn3)nc2n(C2CCCC2)c1=O | 103 ± 24% | 93.4 ± 24% | 111 ± 15%
O=C(Nc1n[nH]c2nc(-c3ccc(O)cc3)c(Br)cc12)C1CC1 | 94.5 ± 21% | 116 ± 26% | 82 ± 11%
COC(=O)c1c(-c2ccccc2)c2cc(Br)ccc2c(=O)n1Cc1ccc(S(C)(=O)=O)cc1 | 89.8 ± 18% | 89.35 ± 0.37% | 108 ± 3.6%
CNC(=O)c1ccc2c(c1)ncn2-c1ccc(CC(=O)OC(C)(C)C)cc1 | 84.9 ± 6.7% | 76.1 ± 18% | 77.6 ± 18%
Cc1cnc(Nc2ccc(F)cc2Cl)nc1-c1c[nH]c(C(=O)N[C@H](CO)c2cccc(Cl)c2)c1 [Vertex 11e] | 93.5 ± 20% | 82 ± 1.2% | 101 ± 36%
Nc1ncnc2[nH]c(-c3ccccc3)nc12 | 89.2 ± 20% | 96.9 ± 36% | 107 ± 7.2%
CC[C@]1(F)CN(C2CCCC2)c2nc(Nc3ccc(C(=O)NC4CCN(C)CC4)cc3OC)ncc2N(C)C1=O | 121 ± 17% | 126 ± 28% | 104 ± 7.4%
COc1ncc(-c2cc(-c3ncc(CN4C[C@@H](C)O[C@@H](C)C4)o3)c3cn[nH]c3c2)cc1NS(C)(=O)=O | 95.6 ± 28% | 82.2 ± 2.4% | 73.5 ± 47%

Filtered by structure: the compounds so far with sulfur (two)
SMILES | metabolic activity (1 µM) | metabolic activity (2 µM) | metabolic activity (10 µM)
COC(=O)c1c(-c2ccccc2)c2cc(Br)ccc2c(=O)n1Cc1ccc(S(C)(=O)=O)cc1 | 89.8 ± 18% | 89.35 ± 0.37% | 108 ± 3.6%
COc1ncc(-c2cc(-c3ncc(CN4C[C@@H](C)O[C@@H](C)C4)o3)c3cn[nH]c3c2)cc1NS(C)(=O)=O | 95.6 ± 28% | 82.2 ± 2.4% | 73.5 ± 47%

Additional structures follow.

SMILES | metabolic activity (1 µM) | metabolic activity (2 µM) | metabolic activity (10 µM)
CNS(=O)(=O)c1ccc(N(C)C)c(Nc2ncnc3cc(OC)c(OC)cc23)c1 | 81.2 ± 10% | 84 ± 17% | 77 ± 11%
COc1ccc2c(-c3ccnc(Nc4cccc(OC(F)(F)F)c4)n3)cnn2n1 | 69.4 ± 3.4% | 81 ± 5.9% | 101 ± 8.7%
CCCCN(Cc1ccccc1)C(=O)c1ccc(S(=O)(=O)Nc2ccccc2)cc1 | 98.5 ± 36% | 102 ± 2.8% | 91.75 ± 0.74%
COc1ncccc1-c1cnn2ccc(N3CCN4C(=O)NCC4C3)nc12 (stereo not drawn) | 86.6 ± 19% | 93.4 ± 7.9% | 97.3 ± 3.3%
O=C(Nc1n[nH]c2cc(-c3cccc(F)c3F)ccc12)C1CC1 | 78.3 ± 9.2% | 83.8 ± 9.3% | 111 ± 11%
Cl.Cl.Cl.NC(Cc1c[nH]c2ccccc12)C(=O)Nc1cncc(C=Cc2ccncc2)c1 (stereo not drawn) | 114 ± 15% | 115 ± 1.7% | 97.7 ± 23%
Cc1ccc(-c2cc(-c3c[nH]nc3-c3ccccn3)ccn2)cc1 | 98.2 ± 10% | 73.2 ± 4.6% | 80.3 ± 21%
COc1cc(C)c(N(C)C(=O)CN(C)C)cc1Nc1nc(Nc2cccc(F)c2C(N)=O)c2cc[nH]c2n1 | 111 ± 8.8% | 73 ± 3.5% | 93.3 ± 19%
COC(=O)c1c(-c2ccccc2)c2cc(OC)ccc2c(=O)n1Cc1ccccc1 | 112.4 ± 0.64% | 106 ± 36% | 128 ± 11%
COC[C@@H](C)N[C@H]1CC[C@H](Nc2cc(-c3cccc(NCC4(C#N)CCOCC4)n3)c(Cl)cn2)CC1 | 86.2 ± 18% | 74.42 ± 0.2% | 93.2 ± 5.7%
CN1CCN(C(=O)c2cccc(NC(=O)Nc3ccc(N(C)c4ccnc(Nc5ccc(CS(C)(=O)=O)cc5)n4)cc3)c2)CC1.Cl | 102 ± 34% | 108 ± 4% | 120 ± 7.8%
CN1C(=O)c2ccccc2N(C)c2nc(Nc3ccc(S(=O)(=O)NCCCNC(=O)OC(C)(C)C)cc3)ncc21 | 102 ± 34% | 96.1 ± 18% | 120 ± 19%
OC[C@H]1C[C@@H](Nc2nc(NCCc3cccnc3)ncc2-c2[nH+]c3ccccc3s2)[C@H](O)[C@@H]1O | 93.5 ± 30% | 88.7 ± 16% | 101 ± 26%
CN1CCC(NC(=O)c2n[nH]cc2NC(=O)c2c(F)cccc2F)CC1 | 116 ± 8.8% | 125 ± 22% | 116 ± 2.1%
COc1cc2ncnc(Nc3cccc(Cl)c3F)c2cc1O[C@H]1CC[C@@]2(CC1)NCCNC2=O | 93.6 ± 7.9% | 105 ± 25% | 104 ± 7.8%
CC(C)C(=O)N[C@@H]1CCN(C(=O)Nc2nc3c(s2)-c2nc(-c4ccccc4Cl)ncc2CC3)C1 | 90.5 ± 23% | 102 ± 4.5% | 101 ± 19%
O=c1[nH]c2cc(Nc3ccc(F)cc3F)ccc2n1CC1CCCCC1 | 92 ± 34% | 74.4 ± 24% | 73.4 ± 18%
COc1ncccc1-c1cnn2ccc(N3CCN(C(=O)CN(C)C)CC3)nc12 | 74.7 ± 2.6% | 78.9 ± 3.4% | 113 ± 2.6%
CCc1c(-c2ccc(C(C)(C)O)cc2)[nH]c2nc(C)c3cncn3c12 | 79.8 ± 6.3% | 101 ± 30% | 88.7 ± 21%
CC(C)(C)c1cnc(CSc2cnc(NC(=O)C3CCOCC3)s2)o1 | 102 ± 8.8% | 108 ± 14% | 67.2 ± 3.4%
Cc1ccc(CNC(=O)N2CCC[C@]3(CCN(Cc4ccc(Cl)c(Cl)c4)C3)C2)cc1 | 90.2 ± 24% | 90.4 ± 5.3% | 150 ± 3.5%
Cl.O=S1CCN(Cc2ccc(-c3ccc4ncnc(Nc5ccc(OCc6ccccc6)c(F)c5)c4c3)o2)CC1 | 93.8 ± 20% | 118 ± 20% | 91.6 ± 20%

SMILES | metabolic activity (1 µM) | metabolic activity (2 µM) | metabolic activity (10 µM)
CCCS(=O)(=O)Nc1ccc(F)c(-n2cc(-c3cncc(OC)c3)nn2)c1F | 92.3 ± 42% | 78.6 ± 14% | 99.1 ± 13%
Nc1n[nH]c2ncc(-c3ccccc3)cc12 | 116 ± 10% | 112.2 ± 0.72% | 104 ± 13%
CC1=C(C(=O)Nc2ccc3[nH]ncc3c2)C(c2ccc(Cl)c(Cl)c2)CC(=O)N1 (stereo not drawn) | 102 ± 16% | 106 ± 12% | 98.4 ± 18%
Cn1cc(-c2cnc3ccc4ccc(COC(=O)NCc5ccccn5)cc4c(=O)c3c2)cn1 | 99.4 ± 14% | 133 ± 6.8% | 120 ± 12%
CC1=C(C(=O)Nc2ccc3[nH]ncc3c2)C(c2ccc3ccccc3c2)CC(=O)N1 (stereo not drawn) | 95.8 ± 2.8% | 105 ± 36% | 107.1 ± 0.2%
C[C@@H]1CCN(C(=O)CO)C[C@@H]1N(C)c1ncnc2[nH]ccc12 | 118 ± 15% | 123 ± 31% | 97.4 ± 25%
Cc1cccc(-c2cnc3occ(-c4ccc(C(=O)O)c(C5CCCC5)c4)c3c2)c1 | 73.2 ± 17% | 85.1 ± 35% | 56.1 ± 62%
O=C(O)CSc1ncnc2cc(-c3ccc(F)cc3)sc12 | 108.3 ± 0.45% | 84.2 ± 29% | 110 ± 26%
COC(=O)Nc1nc2ccc(Oc3ccc(NC(=O)Nc4cc(C(F)(F)F)ccc4F)cc3)cc2s1.Cl | 94.6 ± 46% | 127 ± 21% | 110 ± 20%
CCc1ccc(Oc2nccc(-c3c(-c4ccc(F)cc4)ncn3C3CCNCC3)n2)cc1 | 44.3 ± 41% | 99.1 ± 34% | 98.758 ± 0.056%
COC(=O)C(NC(=O)NC1CCN(c2ccnc(Nc3ccc(F)cc3)n2)C1)c1ccccc1 (stereo not drawn) | 108 ± 5.1% | 90.7 ± 11% | 109 ± 15%
Cn1cncc1-c1ccc(C(=O)N[C@H](CN)c2ccccc2)cc1 | 100 ± 22% | 127 ± 24% | 92.7 ± 11%
O=C(O)CSc1ncnc2cc(-c3cc4ccccc4s3)sc12 | 104 ± 27% | 104 ± 27% | 131 ± 34%
CN1c2ccsc2C(=O)Nc2cnc(Nc3ccc(S(=O)(=O)NCCCNC(=O)OC(C)(C)C)cc3)nc21 | 92.5 ± 1.1% | 132 ± 3.7% | 85.8 ± 18%
CCS(=O)(=O)c1ccc(OC)c(Nc2ncc(-c3cccc(F)c3)o2)c1 | 109 ± 30% | 67.08 ± 0.57% | 95.5 ± 45%
COc1cc(Nc2nccc(N3CCC(NC(=O)Nc4cc(C)ccc4C)C3)n2)cc(OC)c1OC (stereo not drawn) | 101 ± 12% | 84.2 ± 7.8% | 112 ± 7.4%
C/C(Nc1ccc(S(N)(=O)=O)cc1)=C1/C(=O)Nc2ccccc21 | 101 ± 20% | 66.4 ± 4.5% | 112 ± 11%
C[C@@H](Oc1cc(-n2cnc3ccc(CN4CCN(C)CC4)cc32)sc1C(N)=O)c1ccccc1C(F)(F)F | 86.6 ± 6.2% | 64.3 ± 4% | 105 ± 3.7%
C#Cc1cccc(Nc2ncnc3cc(OC)c(OC4CCN(C)CC4)cc23)c1 | 85.2 ± 1.1% | 98 ± 29% | 85.3 ± 3.8%
COc1cc(N2CCNCC2)ccc1Nc1nc(Cc2c(Cl)cccc2Cl)cc2c1C(=O)NCN2 | 82 ± 22% | 102 ± 4.5% | 94 ± 16%
CN1C(=O)[C@@H](NC(=O)c2cc(Cc3ccccc3)on2)COc2ccccc21 | 95.4 ± 16% | 108 ± 25% | 125 ± 4.5%
COc1cc(N2CCN(C(C)C)CC2)ccc1Nc1nc(Nc2ccc(F)cc2C(=O)NC[C@@H](O)CO)c2cc[nH]c2n1 | 96 ± 22% | 113 ± 18% | 112 ± 2.5%
